This assay has as its target histone methyltransferase enhancer of zeste homolog 2 (EZH2), endogenous (human (endogenous in SW480)) (UniProt Q15910). Description: co-IP; total lysates of SW480 cells expressing OGT-FLAG, IP with FLAG Ab or EZH2 Ab, western blotting. In general terms: In western blotting, separated proteins are transferred to a membrane and probed.

Chains of the proteins cited; added tags and fusions are not shown.
UniProt Q15910: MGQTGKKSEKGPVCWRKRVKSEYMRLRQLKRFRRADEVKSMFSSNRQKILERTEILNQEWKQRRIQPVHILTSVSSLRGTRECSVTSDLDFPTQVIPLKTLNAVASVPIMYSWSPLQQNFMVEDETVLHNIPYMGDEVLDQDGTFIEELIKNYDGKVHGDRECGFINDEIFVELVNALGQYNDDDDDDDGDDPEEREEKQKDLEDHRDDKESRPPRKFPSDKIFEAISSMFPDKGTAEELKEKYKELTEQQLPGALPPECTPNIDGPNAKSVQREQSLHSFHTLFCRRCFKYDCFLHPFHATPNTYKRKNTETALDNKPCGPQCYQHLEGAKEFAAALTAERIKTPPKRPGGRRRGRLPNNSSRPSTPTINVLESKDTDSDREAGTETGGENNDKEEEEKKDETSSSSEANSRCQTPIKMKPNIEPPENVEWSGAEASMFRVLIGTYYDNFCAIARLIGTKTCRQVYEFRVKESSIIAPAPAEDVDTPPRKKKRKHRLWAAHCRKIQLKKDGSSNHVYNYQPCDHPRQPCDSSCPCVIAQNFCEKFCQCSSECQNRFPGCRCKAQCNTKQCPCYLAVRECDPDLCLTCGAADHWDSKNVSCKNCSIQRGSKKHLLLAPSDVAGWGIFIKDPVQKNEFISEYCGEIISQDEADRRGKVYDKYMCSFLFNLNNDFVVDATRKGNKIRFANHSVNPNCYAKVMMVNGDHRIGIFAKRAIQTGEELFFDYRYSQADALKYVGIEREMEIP

Results are given in words; binding and its absence hold for the method and conditions named. Binding seen in cells or lysates may run through a third protein. Some results given as binding are weak or reduced against the parent protein; the word gives no strength. Sequences can lack the tags named with a protein.

B1: O-GlcNAcylation transferase (OGT), FLAG-tagged, overexpressed in SW480 cells (enzyme, UniProt O15294-1 1-1046)
chain: MASSVGNVADSTEPTKRMLSFQGLAELAHREYQAGDFEAAERHCMQLWRQEPDNTGVLLLLSSIHFQCRRLDRSAHFSTLAIKQNPLLAEAYSNLGNVYKERGQLQEAIEHYRHALRLKPDFIDGYINLAAALVAAGDMEGAVQAYVSALQYNPDLYCVRSDLGNLLKALGRLEEAKACYLKAIETQPNFAVAWSNLGCVFNAQGEIWLAIHHFEKAVTLDPNFLDAYINLGNVLKEARIFDRAVAAYLRALSLSPNHAVVHGNLACVYYEQGLIDLAIDTYRRAIELQPHFPDAYCNLANALKEKGSVAEAEDCYNTALRLCPTHADSLNNLANIKREQGNIEEAVRLYRKALEVFPEFAAAHSNLASVLQQQGKLQEALMHYKEAIRISPTFADAYSNMGNTLKEMQDVQGALQCYTRAIQINPAFADAHSNLASIHKDSGNIPEAIASYRTALKLKPDFPDAYCNLAHCLQIVCDWTDYDERMKKLVSIVADQLEKNRLPSVHPHHSMLYPLSHGFRKAIAERHGNLCLDKINVLHKPPYEHPKDLKLSDGRLRVGYVSSDFGNHPTSHLMQSIPGMHNPDKFEVFCYALSPDDGTNFRVKVMAEANHFIDLSQIPCNGKAADRIHQDGIHILVNMNGYTKGARNELFALRPAPIQAMWLGYPGTSGALFMDYIITDQETSPAEVAEQYSEKLAYMPHTFFIGDHANMFPHLKKKAVIDFKSNGHIYDNRIVLNGIDLKAFLDSLPDVKIVKMKCPDGGDNADSSNTALNMPVIPMNTIAEAVIEMINRGQIQITINGFSISNGLATTQINNKAATGEEVPRTIIVTTRSQYGLPEDAIVYCNFNQLYKIDPSTLQMWANILKRVPNSVLWLLRFPAVGEPNIQQYAQNMGLPQNRIIFSPVAPKEEHVRRGQLADVCLDTPLCNGHTTGMDVLWAGTPMVTMPGETLASRVAASQLTCLGCLELIAKNRQEYEDIAVKLGTDLEYLKKVRGKVWKQRISSPLFNTKQYTMELERLYLQMWEHYAAGNKPDHMIKPVEVTESA
As for B1, the binding result was “binds”.

For the origin of these results see PMC6336687.
